# In the supplement of paper PMC6411743:
# The chains behind the UniProt entries cited, without tags or fusion partners. Where a name states a change or a piece, a line headed by the entry shows the natural chain unless it says otherwise.
# UniProt O14841: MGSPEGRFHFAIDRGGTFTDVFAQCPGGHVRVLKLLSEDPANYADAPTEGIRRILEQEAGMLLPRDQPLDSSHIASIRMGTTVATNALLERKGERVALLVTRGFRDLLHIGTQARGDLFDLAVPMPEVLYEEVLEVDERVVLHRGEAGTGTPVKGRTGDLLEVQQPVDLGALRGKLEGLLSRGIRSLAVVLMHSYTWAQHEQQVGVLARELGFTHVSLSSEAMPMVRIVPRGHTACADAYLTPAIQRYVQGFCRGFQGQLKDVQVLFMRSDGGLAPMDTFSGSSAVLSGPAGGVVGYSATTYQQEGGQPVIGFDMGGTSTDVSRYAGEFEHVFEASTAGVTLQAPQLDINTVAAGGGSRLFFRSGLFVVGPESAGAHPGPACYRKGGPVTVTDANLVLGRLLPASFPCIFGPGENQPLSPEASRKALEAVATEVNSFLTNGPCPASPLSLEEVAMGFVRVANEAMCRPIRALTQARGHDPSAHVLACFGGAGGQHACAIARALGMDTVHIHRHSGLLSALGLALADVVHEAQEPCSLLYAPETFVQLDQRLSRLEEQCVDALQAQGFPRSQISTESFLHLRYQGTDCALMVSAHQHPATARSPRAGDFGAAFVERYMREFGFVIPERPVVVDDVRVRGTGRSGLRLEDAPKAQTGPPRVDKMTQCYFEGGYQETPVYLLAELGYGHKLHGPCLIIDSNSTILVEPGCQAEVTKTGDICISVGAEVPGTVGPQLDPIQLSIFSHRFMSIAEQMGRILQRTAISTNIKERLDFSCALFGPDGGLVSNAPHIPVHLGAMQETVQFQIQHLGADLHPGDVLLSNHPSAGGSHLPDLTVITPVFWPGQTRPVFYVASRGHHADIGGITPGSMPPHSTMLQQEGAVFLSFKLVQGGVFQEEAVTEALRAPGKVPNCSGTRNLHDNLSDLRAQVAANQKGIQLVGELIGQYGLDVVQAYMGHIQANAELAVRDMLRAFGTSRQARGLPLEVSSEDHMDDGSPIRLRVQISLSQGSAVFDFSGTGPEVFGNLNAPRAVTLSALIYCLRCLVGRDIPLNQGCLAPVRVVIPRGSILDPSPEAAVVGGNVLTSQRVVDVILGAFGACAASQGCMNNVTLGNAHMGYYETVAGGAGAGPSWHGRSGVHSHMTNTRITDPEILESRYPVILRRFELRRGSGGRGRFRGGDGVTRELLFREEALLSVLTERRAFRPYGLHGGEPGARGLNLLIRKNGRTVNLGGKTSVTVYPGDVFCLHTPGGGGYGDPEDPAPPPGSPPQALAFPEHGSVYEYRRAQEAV
# UniProt O43303: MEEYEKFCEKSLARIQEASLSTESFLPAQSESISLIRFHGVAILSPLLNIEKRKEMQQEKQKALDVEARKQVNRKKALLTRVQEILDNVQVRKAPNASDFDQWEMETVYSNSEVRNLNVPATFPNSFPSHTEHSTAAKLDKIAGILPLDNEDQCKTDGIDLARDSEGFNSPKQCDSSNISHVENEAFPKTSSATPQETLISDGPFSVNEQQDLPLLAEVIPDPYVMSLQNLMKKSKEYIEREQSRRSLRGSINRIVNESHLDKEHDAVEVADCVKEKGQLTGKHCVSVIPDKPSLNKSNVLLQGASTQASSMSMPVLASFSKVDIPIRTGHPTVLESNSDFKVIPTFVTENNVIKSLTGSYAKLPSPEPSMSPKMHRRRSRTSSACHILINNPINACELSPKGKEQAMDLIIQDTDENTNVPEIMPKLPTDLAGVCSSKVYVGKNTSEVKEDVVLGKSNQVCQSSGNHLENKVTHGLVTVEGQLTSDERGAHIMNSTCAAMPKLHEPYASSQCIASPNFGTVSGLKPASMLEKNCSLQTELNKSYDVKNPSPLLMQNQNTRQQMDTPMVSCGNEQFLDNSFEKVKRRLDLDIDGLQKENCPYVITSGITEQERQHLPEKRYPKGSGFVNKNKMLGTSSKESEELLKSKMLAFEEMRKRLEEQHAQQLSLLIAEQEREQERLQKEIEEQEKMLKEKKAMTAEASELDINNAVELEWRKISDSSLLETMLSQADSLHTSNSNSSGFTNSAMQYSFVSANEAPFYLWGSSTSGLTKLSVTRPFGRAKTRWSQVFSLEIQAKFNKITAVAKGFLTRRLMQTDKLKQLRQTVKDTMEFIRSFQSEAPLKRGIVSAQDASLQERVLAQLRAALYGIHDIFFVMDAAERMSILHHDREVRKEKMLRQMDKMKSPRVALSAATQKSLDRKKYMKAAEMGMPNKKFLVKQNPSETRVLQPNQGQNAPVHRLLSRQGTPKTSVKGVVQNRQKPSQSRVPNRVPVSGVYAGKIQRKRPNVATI
# UniProt O00429, whole entry: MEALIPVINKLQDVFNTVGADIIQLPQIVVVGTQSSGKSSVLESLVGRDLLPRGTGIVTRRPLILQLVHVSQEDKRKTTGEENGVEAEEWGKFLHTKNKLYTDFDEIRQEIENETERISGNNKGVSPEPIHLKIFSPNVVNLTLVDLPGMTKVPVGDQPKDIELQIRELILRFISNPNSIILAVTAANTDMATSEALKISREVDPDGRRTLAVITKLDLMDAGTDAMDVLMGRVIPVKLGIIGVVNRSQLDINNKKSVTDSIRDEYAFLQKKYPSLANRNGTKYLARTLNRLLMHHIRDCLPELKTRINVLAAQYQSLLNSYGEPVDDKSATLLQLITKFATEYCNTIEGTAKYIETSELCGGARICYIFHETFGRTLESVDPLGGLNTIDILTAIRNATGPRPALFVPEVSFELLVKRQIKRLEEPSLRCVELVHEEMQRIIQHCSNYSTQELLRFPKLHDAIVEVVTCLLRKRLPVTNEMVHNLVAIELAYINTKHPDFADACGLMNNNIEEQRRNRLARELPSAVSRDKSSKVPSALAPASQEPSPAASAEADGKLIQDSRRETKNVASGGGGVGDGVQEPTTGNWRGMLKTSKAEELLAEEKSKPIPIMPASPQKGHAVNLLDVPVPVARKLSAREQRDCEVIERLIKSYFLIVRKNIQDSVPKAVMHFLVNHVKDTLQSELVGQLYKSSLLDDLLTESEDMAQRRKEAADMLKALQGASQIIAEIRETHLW
# UniProt O14828: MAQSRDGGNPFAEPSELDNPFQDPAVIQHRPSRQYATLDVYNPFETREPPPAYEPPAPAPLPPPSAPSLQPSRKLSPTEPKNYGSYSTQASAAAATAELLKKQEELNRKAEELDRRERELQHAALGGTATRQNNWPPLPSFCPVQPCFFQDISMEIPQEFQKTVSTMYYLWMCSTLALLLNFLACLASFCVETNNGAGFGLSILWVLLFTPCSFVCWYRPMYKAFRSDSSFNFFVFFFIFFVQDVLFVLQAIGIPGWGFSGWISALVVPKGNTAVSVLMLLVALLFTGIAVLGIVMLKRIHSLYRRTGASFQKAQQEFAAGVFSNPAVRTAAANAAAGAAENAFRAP
# UniProt O00264: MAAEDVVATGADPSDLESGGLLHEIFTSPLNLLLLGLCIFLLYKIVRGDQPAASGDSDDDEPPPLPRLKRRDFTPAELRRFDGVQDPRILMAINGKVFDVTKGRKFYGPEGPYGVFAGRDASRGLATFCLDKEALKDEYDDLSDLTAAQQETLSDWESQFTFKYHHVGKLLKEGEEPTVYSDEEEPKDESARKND
# UniProt O43156, whole entry: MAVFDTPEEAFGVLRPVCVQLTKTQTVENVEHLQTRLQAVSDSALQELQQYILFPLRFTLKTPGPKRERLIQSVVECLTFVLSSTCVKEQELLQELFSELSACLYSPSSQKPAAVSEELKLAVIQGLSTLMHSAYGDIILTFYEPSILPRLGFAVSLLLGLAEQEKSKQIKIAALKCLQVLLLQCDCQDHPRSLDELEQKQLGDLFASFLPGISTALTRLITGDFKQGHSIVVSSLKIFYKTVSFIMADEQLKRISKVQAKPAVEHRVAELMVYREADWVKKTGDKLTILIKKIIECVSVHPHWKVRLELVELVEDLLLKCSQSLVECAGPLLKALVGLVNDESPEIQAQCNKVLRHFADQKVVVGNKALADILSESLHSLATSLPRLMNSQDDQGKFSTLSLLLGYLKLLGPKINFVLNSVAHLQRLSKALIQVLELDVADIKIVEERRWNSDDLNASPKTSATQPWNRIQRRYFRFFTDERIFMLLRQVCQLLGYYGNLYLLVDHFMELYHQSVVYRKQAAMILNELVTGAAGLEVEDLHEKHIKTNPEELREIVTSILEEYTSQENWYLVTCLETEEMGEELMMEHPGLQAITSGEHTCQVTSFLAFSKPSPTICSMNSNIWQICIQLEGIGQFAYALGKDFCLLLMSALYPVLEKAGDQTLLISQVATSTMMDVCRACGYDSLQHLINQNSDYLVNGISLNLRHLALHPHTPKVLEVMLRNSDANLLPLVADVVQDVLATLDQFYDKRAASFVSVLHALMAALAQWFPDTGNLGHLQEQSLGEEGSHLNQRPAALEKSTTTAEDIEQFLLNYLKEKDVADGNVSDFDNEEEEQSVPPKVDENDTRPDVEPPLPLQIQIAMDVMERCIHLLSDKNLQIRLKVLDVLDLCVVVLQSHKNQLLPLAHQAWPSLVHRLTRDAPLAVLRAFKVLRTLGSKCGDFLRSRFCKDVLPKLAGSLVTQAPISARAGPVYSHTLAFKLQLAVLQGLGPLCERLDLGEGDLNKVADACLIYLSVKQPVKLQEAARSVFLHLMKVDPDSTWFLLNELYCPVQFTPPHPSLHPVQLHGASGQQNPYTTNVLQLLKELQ
# UniProt O15126: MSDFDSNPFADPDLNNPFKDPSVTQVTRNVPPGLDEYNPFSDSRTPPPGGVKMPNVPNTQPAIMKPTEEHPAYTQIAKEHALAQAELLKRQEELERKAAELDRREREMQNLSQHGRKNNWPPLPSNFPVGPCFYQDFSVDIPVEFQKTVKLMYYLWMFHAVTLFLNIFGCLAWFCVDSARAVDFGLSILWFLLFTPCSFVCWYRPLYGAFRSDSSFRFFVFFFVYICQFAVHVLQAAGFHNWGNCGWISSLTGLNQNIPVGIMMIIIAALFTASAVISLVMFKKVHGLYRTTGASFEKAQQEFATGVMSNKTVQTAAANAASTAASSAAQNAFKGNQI
# UniProt O15121: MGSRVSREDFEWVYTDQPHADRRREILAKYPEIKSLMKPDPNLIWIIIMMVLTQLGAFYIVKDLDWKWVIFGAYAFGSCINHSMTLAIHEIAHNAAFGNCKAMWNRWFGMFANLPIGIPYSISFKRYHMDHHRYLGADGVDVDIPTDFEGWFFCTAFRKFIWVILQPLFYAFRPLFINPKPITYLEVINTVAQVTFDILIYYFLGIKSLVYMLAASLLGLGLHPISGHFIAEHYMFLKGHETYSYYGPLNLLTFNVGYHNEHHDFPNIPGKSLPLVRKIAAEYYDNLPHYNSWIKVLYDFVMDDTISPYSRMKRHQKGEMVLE
# ± gives the standard deviation of the averaged measurements. The list shows a part of the results, in another mix than the full data.
# Compound: Nc1ncnc2c1ncn2[C@@H]1O[C@H](COP(=O)(O)OP(=O)(O)OP(=O)(O)O)[C@@H](O)[C@H]1O [adenosine triphosphate]
# Experiment: NP40-soluble protein abundance relative to vehicle (solubility fold change) (ratio); higher = more soluble protein in presence of ATP
# Procedure, shortened: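 Jurkat crude lysate (Dounce-homogenised) was treated with eight concentrations from 0.1 to 10 mM for 10 min at room temperature, then 3 min at 37 °C. It was solubilised with 0.8% NP40 and benzonase (60 min, 4 °C) and ultracentrifuged, and the supernatant was TMT-labelled for LC-MS/MS. Intensities were vsn-normalised, and the value is the fold change against the NP40-processed vehicle per replicate, from three independent experiments.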
Target,NP40-soluble protein abundance (concentration: 1mM),NP40-soluble protein abundance (concentration: 2mM),NP40-soluble protein abundance (concentration: 4mM),NP40-soluble protein abundance (concentration: 6mM),NP40-soluble protein abundance (concentration: 8mM),NP40-soluble protein abundance (concentration: 10mM)
OPLAH (UniProt O14841),1.03 ± 0.022,1 ± 0.099,1 ± 0.047,0.984 ± 0.073,0.989 ± 0.045,0.988 ± 0.029
UniProt O43303 and related entries,1.08 ± 0.073,1.03 ± 0.03,1.06 ± 0.025,1.1 ± 0.12,1.09 ± 0.079,1.08 ± 0.068
UniProt O00429 and related entries,0.945 ± 0.038,0.938 ± 0.019,0.9338 ± 0.0041,0.9 ± 0.04,0.934 ± 0.014,0.928 ± 0.019
UniProt O14828 and related entries,0.944 ± 0.024,0.948 ± 0.02,0.923 ± 0.049,0.963 ± 0.033,0.917 ± 0.037,0.917 ± 0.032
PGRMC1 (UniProt O00264),0.944 ± 0.13,0.918 ± 0.11,0.903 ± 0.1,0.904 ± 0.12,0.877 ± 0.047,0.759 ± 0.11
UniProt O43156,0.972 ± 0.076,0.978 ± 0.06,0.966 ± 0.037,0.925 ± 0.086,0.951 ± 0.031,0.964 ± 0.044
SCAMP1 (UniProt O15126),0.975 ± 0.027,0.984 ± 0.01,0.958 ± 0.03,1.01 ± 0.038,0.954 ± 0.039,0.94 ± 0.031
DEGS1 (UniProt O15121),1.04 ± 0.025,0.96 ± 0.064,0.956 ± 0.041,0.9614 ± 0.0059,1.017 ± 0.0065,0.974 ± 0.052
